We go through one molecule from paper PMC4858568.

Results are given in words; binding and its absence hold for the method and conditions named. A result given as binding can be weak or reduced; the word gives no strength. Sequences can lack the tags named with a protein.

The experiment concerns the target GST-PARP-1 CAT domain. Kind of experiment: pull-down; recombinant His-C4orf27 incubated with GST-PARP-1 or GST-PARP-2 fragments, GST pull-down, immunoblotting; both purified.

B1: Recombinant His-C4orf27 (protein, UniProt Q9NWY4 1-346)
chain: MVGGGGKRRPGGEGPQCEKTTDVKKSKFCEADVSSDLRKEVENHYKLSLPEDFYHFWKFCEELDPEKPSDSLSASLGLQLVGPYDILAGKHKTKKKSTGLNFNLHWRFYYDPPEFQTIIIGDNKTQYHMGYFRDSPDEFPVYVGINEAKKNCIIVPNGDNVFAAVKLFLTKKLREITDKKKINLLKNIDEKLTEAARELGYSLEQRTVKMKQRDKKVVTKTFHGAGLVVPVDKNDVGYRELPETDADLKRICKTIVEAASDEERLKAFAPIQEMMTFVQFANDECDYGMGLELGMDLFCYGSHYFHKVAGQLLPLAYNLLKRNLFAEIIEEHLANRSQENIDQLAA
For B1, the binding result is on record as “binds”.
